Assay results taken from patent US20240391889A1, “ANTIMICROBIAL COMPOUNDS AND THE METHODS OF USE” (priority 2021, published 2024).

Test system: HepG2 liver cells
Type: cell-based
Procedure: The mammalian cell lines that were tested (HepG2, 3T3, and HaCat) were incubated with RMG9-11 for 72 hours and cell viability was determined via mitochondrial activity using an MTT reduction assay where viable cells reduce MTT to formazan. Toxicity is reported as the concentration of the peptoid that results in a 50% reduction in viable cells, termed toxicity dose 50% or TD50. […] SR is defined as the TD50 divided by MIC and provides a measure of the therapeutic window for a compound. Typically for most lead compounds that would continue through development and optimization, a SR of 10 is preferred while an SR of 100 is more desirable for a compound moving into preclinical animal model evaluation.
Hepatocellular carcinoma (HepG2), mouse fibroblast (3T3), and human keratinocyte (HaCat) cells were cultured in Dulbeco modified eagle media (DMEM) containing 10% fetal bovine serum (FBS) and 1% penicillin, streptomycin, and glutamine (PSG) at 37° C. and 5% CO2. Cells were collected and adjusted to […] to 4×10^5 cells/mL in phenol-red free DMEM and plated (100 μL) 96 well plates. 2-fold serial dilutions of 10× peptoid (11.1 μL) were added to each well in triplicate. Water (vehicle) was used as a negative control. Plates were incubated at 37° C. in 5% CO2 for 72 hours. […] Plates were read on a SPECTRAMAX M5 plate reader (Abs. 570 nm). […]

SMILES: CCCCCCCCCCCCCNCC(=O)N(CCC)CC(=O)N(CC(=O)N(CCCCN)CC(=O)N(CC(=O)N(CC(=O)N(CCCN)CC(N)=O)Cc1ccccc1)Cc1ccco1)C(C)c1ccccc1 (centres unmarked) [RMG9-11] (H-[N(tridecyl)Gly][NPrGly][X1][Nlys][NFurfurylGly][Nphe][Gly(N(CH2)3NH2)]-NH2)
- C. neoformans SR (HepG2 TD50/MIC) (HepG2 TD50 divided by C. neoformans MIC): 36
- C. albicans SR (HepG2 TD50/MIC) (HepG2 TD50 divided by MIC against planktonic C. albicans): 18

Numbered stars: 1 amine (or outer) side, 2 acyl side, 3 side chain; on linkers, the order of the positions; unused ones are H or OH. Square brackets hold non-standard residues; d marks the D form. Peptide text beside a SMILES is read from it. N(tridecyl)Gly = CCCCCCCCCCCCCNCC(=O)O; X1 = CC(c1ccccc1)N(CC(=O)[*:2])[*:1]; NFurfurylGly = O=C(O)CNCc1ccco1; Gly(N(CH2)3NH2) = NCCCNCC(=O)O; Nphe = O=C(O)CNCc1ccccc1; NPrGly = CCCNCC(=O)O; Nlys = NCCCCNCC(=O)O
